Source: the supplement of paper PMC10849652
This is one part of the list.

Chains of the proteins cited; added tags and fusions are not shown. Lines headed by an entry give the natural chain unless they say otherwise; changes in a name come on top.
UniProt Q15118, whole entry, looked up: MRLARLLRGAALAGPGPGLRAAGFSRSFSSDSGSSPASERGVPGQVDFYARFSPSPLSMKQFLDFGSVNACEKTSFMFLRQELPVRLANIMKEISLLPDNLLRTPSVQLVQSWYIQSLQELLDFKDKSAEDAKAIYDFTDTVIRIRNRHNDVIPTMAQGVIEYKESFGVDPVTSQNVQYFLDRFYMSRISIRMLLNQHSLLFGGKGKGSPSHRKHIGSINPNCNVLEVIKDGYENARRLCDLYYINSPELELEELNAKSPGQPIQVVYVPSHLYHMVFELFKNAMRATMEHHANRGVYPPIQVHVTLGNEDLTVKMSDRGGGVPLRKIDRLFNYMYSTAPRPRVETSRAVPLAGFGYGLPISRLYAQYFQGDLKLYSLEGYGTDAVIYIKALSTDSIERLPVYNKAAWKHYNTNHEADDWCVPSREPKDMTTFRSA
UniProt Q15154: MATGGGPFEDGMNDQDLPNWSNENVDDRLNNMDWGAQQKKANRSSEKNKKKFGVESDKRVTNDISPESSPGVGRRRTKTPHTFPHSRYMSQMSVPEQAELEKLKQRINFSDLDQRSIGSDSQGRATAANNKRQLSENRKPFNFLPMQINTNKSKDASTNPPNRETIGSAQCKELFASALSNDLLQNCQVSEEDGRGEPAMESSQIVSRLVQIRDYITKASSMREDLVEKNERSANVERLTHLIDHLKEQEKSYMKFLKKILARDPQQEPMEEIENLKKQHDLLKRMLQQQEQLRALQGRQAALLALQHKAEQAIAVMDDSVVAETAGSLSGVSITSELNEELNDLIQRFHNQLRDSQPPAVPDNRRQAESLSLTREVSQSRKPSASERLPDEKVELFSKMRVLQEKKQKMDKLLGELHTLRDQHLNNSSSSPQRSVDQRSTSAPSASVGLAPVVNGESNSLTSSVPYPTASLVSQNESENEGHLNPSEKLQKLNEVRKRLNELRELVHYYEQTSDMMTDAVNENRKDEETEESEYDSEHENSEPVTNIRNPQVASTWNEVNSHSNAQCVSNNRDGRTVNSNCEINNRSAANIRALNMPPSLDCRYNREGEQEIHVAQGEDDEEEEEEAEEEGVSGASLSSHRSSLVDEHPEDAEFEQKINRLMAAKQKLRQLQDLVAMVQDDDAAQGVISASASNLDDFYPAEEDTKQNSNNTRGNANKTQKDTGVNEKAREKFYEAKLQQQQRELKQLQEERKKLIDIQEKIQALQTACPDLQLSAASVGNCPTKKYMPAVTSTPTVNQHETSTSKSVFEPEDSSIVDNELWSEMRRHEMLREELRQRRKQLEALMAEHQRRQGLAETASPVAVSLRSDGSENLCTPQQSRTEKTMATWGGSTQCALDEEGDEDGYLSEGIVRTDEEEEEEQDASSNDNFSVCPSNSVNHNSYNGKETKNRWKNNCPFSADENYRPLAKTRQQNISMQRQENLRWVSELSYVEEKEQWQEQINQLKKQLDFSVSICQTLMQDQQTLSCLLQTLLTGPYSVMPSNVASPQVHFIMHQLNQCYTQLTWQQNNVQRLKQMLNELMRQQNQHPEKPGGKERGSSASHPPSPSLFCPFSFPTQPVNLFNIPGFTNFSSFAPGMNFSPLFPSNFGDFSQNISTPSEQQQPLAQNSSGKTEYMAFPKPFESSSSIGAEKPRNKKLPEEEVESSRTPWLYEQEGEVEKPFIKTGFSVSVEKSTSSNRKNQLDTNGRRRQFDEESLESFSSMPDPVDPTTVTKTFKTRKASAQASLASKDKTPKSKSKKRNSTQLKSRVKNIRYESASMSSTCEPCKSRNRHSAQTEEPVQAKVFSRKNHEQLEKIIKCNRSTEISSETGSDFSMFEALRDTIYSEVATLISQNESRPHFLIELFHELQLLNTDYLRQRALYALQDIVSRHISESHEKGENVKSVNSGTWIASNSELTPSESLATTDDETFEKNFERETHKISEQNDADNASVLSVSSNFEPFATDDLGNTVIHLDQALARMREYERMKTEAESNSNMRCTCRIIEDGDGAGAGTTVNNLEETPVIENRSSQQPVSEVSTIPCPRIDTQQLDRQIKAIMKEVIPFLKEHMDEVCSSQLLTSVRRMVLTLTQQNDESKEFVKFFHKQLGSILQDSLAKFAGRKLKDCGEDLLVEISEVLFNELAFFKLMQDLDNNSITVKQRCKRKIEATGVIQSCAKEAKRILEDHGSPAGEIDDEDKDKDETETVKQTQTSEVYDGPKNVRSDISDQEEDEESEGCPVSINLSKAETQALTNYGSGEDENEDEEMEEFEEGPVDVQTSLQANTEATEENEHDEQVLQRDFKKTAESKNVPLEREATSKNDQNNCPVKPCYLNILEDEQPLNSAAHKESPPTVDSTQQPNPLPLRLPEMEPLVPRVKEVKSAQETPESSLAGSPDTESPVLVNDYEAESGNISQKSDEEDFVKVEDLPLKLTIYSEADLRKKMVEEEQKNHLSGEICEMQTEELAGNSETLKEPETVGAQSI
UniProt Q92968: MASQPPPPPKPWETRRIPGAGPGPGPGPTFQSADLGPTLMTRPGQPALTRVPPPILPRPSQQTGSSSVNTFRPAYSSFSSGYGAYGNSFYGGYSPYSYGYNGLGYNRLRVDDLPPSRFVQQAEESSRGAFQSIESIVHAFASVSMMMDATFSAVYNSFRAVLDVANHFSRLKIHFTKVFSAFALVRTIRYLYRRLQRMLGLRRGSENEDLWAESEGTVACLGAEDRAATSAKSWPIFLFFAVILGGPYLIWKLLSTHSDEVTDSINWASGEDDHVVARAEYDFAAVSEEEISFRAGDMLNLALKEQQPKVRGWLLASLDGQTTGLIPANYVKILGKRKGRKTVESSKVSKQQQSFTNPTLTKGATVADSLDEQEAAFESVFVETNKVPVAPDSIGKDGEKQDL
UniProt P35227: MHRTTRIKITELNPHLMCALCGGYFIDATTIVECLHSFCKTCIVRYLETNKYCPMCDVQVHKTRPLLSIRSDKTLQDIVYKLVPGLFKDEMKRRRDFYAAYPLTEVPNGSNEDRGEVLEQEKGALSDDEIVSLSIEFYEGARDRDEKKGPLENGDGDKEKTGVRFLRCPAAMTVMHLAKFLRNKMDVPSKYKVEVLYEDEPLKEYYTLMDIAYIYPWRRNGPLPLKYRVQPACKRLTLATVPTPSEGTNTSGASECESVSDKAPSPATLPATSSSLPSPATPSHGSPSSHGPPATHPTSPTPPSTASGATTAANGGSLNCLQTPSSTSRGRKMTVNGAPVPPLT
UniProt P22061: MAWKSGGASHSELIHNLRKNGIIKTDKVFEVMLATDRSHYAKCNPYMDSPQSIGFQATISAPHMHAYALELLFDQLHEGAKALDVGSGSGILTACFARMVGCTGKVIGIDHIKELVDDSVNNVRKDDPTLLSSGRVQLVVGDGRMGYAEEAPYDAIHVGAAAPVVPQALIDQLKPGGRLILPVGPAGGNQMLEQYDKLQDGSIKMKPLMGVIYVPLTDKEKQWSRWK
UniProt Q9H4Z3: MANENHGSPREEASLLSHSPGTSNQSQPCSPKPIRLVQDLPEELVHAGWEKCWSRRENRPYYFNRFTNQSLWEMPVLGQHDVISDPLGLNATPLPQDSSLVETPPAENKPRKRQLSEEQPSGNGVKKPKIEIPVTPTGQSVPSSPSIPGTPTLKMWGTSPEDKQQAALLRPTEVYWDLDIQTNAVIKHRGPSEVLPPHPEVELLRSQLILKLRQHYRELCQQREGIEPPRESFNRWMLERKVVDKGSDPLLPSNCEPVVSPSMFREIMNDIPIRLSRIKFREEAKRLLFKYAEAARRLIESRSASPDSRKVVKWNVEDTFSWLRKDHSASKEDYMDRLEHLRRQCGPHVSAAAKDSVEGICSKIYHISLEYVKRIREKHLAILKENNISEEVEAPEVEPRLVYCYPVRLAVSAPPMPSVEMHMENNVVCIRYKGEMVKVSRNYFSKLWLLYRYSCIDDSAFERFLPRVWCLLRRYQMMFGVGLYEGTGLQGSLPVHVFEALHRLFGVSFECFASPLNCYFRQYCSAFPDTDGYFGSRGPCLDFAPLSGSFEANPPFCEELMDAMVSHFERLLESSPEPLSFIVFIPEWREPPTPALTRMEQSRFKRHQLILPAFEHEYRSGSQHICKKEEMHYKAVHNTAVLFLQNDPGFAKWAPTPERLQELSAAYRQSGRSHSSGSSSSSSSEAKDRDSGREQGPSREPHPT
UniProt Q5VU43: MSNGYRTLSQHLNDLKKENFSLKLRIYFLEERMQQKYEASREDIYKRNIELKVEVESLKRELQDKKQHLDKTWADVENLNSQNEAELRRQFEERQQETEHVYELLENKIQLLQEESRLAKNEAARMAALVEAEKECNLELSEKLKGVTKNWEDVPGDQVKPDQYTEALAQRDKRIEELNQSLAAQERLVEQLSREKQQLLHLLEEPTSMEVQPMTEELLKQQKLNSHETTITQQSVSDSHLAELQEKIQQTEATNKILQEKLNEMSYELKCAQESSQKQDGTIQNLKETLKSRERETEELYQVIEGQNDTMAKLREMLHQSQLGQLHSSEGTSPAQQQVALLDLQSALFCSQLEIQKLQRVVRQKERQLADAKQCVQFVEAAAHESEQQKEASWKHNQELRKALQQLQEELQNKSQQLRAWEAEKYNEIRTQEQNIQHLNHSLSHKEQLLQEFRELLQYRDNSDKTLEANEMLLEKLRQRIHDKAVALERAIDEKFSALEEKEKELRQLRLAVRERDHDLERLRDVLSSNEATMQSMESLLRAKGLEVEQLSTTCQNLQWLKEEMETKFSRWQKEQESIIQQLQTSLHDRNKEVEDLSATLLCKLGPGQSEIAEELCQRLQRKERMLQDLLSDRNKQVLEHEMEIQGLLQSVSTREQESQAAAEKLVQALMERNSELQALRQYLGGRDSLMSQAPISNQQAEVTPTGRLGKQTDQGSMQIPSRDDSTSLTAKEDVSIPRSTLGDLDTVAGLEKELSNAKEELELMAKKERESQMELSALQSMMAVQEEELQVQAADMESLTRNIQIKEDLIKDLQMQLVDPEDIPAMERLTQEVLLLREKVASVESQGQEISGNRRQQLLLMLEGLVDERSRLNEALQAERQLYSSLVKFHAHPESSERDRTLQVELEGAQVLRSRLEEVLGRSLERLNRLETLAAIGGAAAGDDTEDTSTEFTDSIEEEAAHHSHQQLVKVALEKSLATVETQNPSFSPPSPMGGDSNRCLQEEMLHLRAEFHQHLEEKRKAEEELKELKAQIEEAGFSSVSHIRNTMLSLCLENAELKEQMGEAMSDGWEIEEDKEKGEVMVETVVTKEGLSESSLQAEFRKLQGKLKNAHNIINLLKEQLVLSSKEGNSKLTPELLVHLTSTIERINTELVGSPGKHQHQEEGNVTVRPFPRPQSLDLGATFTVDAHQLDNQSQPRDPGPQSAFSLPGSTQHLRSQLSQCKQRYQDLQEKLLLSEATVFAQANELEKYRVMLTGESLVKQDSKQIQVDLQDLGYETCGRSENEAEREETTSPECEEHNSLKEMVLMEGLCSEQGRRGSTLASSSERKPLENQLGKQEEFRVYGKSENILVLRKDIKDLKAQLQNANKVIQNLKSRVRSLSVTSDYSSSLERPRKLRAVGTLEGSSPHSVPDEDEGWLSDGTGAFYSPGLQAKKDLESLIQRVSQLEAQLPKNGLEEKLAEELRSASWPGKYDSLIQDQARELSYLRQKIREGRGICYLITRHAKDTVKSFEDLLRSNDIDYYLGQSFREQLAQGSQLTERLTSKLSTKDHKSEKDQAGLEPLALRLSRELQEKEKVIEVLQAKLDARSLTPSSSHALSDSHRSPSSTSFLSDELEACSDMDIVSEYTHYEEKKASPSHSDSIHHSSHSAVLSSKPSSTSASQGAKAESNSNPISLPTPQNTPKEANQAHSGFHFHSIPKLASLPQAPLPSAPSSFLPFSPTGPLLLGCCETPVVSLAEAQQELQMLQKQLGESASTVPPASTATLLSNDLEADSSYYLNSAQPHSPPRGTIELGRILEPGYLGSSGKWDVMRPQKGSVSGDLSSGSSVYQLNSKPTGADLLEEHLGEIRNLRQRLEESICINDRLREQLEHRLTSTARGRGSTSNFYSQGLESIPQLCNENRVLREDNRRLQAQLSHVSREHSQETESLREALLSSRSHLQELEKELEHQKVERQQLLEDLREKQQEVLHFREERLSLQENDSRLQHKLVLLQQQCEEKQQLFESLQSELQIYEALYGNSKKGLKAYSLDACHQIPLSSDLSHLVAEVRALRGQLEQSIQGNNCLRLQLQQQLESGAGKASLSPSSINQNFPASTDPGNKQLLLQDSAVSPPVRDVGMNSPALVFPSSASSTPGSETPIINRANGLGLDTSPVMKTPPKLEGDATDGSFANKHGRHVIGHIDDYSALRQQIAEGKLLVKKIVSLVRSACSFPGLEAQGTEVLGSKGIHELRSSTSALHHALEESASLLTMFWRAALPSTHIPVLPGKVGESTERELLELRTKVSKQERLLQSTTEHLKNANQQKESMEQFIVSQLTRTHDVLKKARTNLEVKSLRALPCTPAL

Experiments:
Experiment in all cases: log2 fold change, soluble protein after heating vs DMSO (PISA); higher = thermal stabilisation; K562 lysate, 10 uM; active = over 0.2 and 3.5 SD of the protein, either way, in both replicates (recomputed)
erlotinib = compound: C#Cc1cccc(Nc2ncnc3cc(OCCOC)c(OCCOC)cc23)c1 [erlotinib]
Summary of the method: (§1)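 K562 pellets were dounce-homogenised in PBS pH 7.4 containing 1 mM MgCl2, and the crude extract, at 1 mg/mL protein, was exposed to 10 μM compound for 30 min. Aliquots were heated for 3 min across 48°C-58°C, pooled, brought to 0.5% NP-40 at 4°C and spun at 21,000xg for 90 min, with the supernatant taken as soluble protein. TMTpro 16plex LC-MS/MS with equalised channel sums quantified that protein. Values are log-two fold changes in thermal stability relative to solvent controls, taken from duplicates.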

[1] = compound: C/C(=N\NC(=O)C1=CC(=CC=C1)S(=O)(=O)N2CCOCC2)/C3=C(C=CC(=C3)Cl)O
Summary of the method: as §1

[2] = compound: C1=CC(=CC=C1C2=NC3=C(N2)C=C(C=C3)C(=O)N)OC4=CC=C(C=C4)Cl
Summary of the method: as §1

[3] = compound: C1=CC2=C(C=CC(=C2)/C=C\3/C(=O)NC(=NCC4=CC=CS4)S3)N=C1
Summary of the method: as §1

[4] = compound: C1=CC=C2C(=C1)C3=NNC4=CC=CC(=C43)C2=O
Summary of the method: as §1

[5] = compound: C1CCN(C1)C(=O)NC2=CC=CC(=C2)NC3=NC=C(C(=N3)NCCC4=CN=CN4)Br
Summary of the method: as §1

[6] = compound: C1CN(CCC1(CC2=CC=C(C=C2)Cl)N)C3=NC=NC4=C3C=CN4
Summary of the method: as §1

[7] = compound: CC(C)C1=C2N=C(C=C(N2N=C1)NCC3=CC=CC=C3)NCCCCCCN
Summary of the method: as §1

[8] = compound: CC1=C(C(CC(=O)N1)C2=CC=C(C=C2)C(F)(F)F)C(=O)NC3=C(C=C4C(=C3)C=NN4)F
Summary of the method: as §1

[9] = compound: CC1=C(C2=C(C=C1)C(=O)C3=CC=CC=C3N2CCCN)C
Summary of the method: as §1

[10] = compound: CC1=C(C=C(C=C1)NC(=O)C2=CC(=CC=C2)C(C)(C)C#N)NC3=CC4=C(C=C3)N=CN(C4=O)C
Summary of the method: as §1

[11] = compound: C1=CC2=NC=CN=C2C=C1/C=C/3\C(=O)NC(=O)S3
Summary of the method: as §1

[12] = compound: C1=CC=C(C=C1)C2=NC(=C(N2)C3=CC=NC=C3)C4=CC(=C(C=C4)Cl)O
Summary of the method: as §1

IRAK-1-4 Inhibitor I = compound: C1COCCN1CCN2C3=CC=CC=C3N=C2NC(=O)C4=CC(=CC=C4)[N+](=O)[O-] [IRAK-1-4 Inhibitor I]
Summary of the method: as §1

ibrutinib = compound: C=CC(=O)N1CCC[C@@H](n2nc(-c3ccc(Oc4ccccc4)cc3)c3c(N)ncnc32)C1 [ibrutinib]
Summary of the method: as §1

[13] = compound: CC(=O)c1cnc2ccc(-c3cc(Cl)c(O)c(Cl)c3)nc2c1N[C@H]1CC[C@H](CN(C)C)CC1
Summary of the method: as §1

ralimetinib = compound: CC(C)(C)Cn1c(N)nc2ccc(-c3[nH]c(C(C)(C)C)nc3-c3ccc(F)cc3)nc21 [ralimetinib]
Summary of the method: as §1

[14] = compound: CC(C)(O)CC(=O)NCCn1ccc2ncnc(Nc3ccc(Oc4cccc(C(F)(F)F)c4)c(Cl)c3)c21
Summary of the method: as §1

[15] = compound: CC1=C(C=C(C=C1)NC(=O)C2=CC(=CC=C2)N(C)C)NC(=O)C3=CC=C(C=C3)O
Summary of the method: as §1

[16] = compound: CC1=CC=C(C=C1)SC2=C3C=C(SC3=CN=C2)C(=O)N
Summary of the method: as §1

Measured: log2 fold change

PDE4DIP (UniProt E9PS60)
inactive: erlotinib 0.026 | [1] -0.056 | [2] -0.13 | [3] 0.044 | [4] 0.039 | [5] 0.114 | [6] 0.063 | [7] 0.037 | [8] -0.113 | [9] 0.076 | [10] 0.234

PDK1 (UniProt Q15118)
inactive: erlotinib -0.06 | [1] 0.053 | [2] -0.111 | [3] -0.012 | [11] 0.04 | [12] -0.022 | [4] 0.136 | [5] 0.478 | [6] 0.276 | IRAK-1-4 Inhibitor I 0.008 | ibrutinib -0.016 | [13] 0.032 | ralimetinib -0.024 | [14] -0.013 | [7] -0.024 | [9] -0.058 | [10] -0.173 | [15] 0.008 | [16] -0.027

PFKFB3 isoform 4 (UniProt Q16875)
inactive: erlotinib -0.006 | [1] -0.021 | [2] 0.028 | [3] -0.033 | [11] 0.011 | [12] -0.034 | [4] -0.035 | [5] 0.032 | [6] 0.002 | IRAK-1-4 Inhibitor I 0.004 | ibrutinib -0.015 | [13] 0.11 | ralimetinib 0.044 | [14] -0.003 | [7] 0 | [8] 0.027 | [9] 0.003 | [10] 0.011 | [15] -0.019 | [16] 0.148

PCM1 (UniProt Q15154)
inactive: erlotinib -0.021 | [1] -0.045 | [2] 0.024 | [3] 0.022 | [11] 0.004 | [12] 0.003 | [4] 0.005 | [5] 0.029 | [6] -0.015 | IRAK-1-4 Inhibitor I 0.031 | ibrutinib 0.01 | [13] 0.008 | ralimetinib -0.024 | [14] -0.046 | [7] 0.021 | [8] 0.001 | [9] -0.002 | [10] 0.035 | [15] 0.019 | [16] -0.015

PEX13 (UniProt Q92968)
inactive: erlotinib 0.01 | [1] -0.137 | [2] -0.157 | [3] 0.079 | [11] 0.042 | [12] -0.015 | [4] -0.046 | [5] 0.154 | [6] 0.135 | IRAK-1-4 Inhibitor I -0.059 | ibrutinib 0.049 | [13] -0.046 | ralimetinib -0.028 | [14] -0.103 | [7] -0.147 | [8] 0.061 | [9] -0.034 | [10] -0.02 | [15] -0.047 | [16] -0.029

PCGF2 (UniProt P35227)
inactive: erlotinib -0.016 | [1] -0.093 | [2] -0.081 | [3] 0.068 | [11] -0.017 | [12] 0.012 | [4] -0.009 | [5] -0.046 | [6] 0.041 | IRAK-1-4 Inhibitor I 0.018 | ibrutinib 0.028 | [13] -0.045 | ralimetinib -0.028 | [14] -0.002 | [7] -0.077 | [8] 0.033 | [9] -0.048 | [10] 0.012 | [15] 0.071 | [16] 0.014

PCMT1 isoform 2 (UniProt P22061)
inactive: erlotinib -0.013 | [1] -0.017 | [2] -0.014 | [3] 0.006 | [11] -0.03 | [12] -0.007 | [4] 0.011 | [5] 0.025 | [6] 0.035 | IRAK-1-4 Inhibitor I -0.001 | ibrutinib 0.052 | [13] -0.002 | ralimetinib -0.019 | [14] 0.052 | [7] 0.005 | [8] -0.018 | [9] 0.016 | [10] -0.031 | [15] -0.008 | [16] 0

PCLO (UniProt Q9Y6V0)
inactive: erlotinib 0.103 | [1] -0.014 | [2] 0.128 | [3] -0.038 | [11] -0.026 | [12] 0.035 | [4] -0.125 | [5] -0.063 | [6] 0.107 | IRAK-1-4 Inhibitor I 0.083 | ibrutinib 0.001 | [13] -0.033 | ralimetinib -0.038 | [14] -0.137 | [7] 0.017 | [8] -0.06 | [9] -0.076 | [10] 0.184 | [15] -0.014 | [16] -0.031

PCIF1 (UniProt Q9H4Z3)
inactive: erlotinib -0.011 | [1] 0.067 | [2] -0.008 | [3] 0.042 | [11] 0.102 | [12] -0.015 | [4] 0.014 | [5] -0.011 | [6] -0.033 | IRAK-1-4 Inhibitor I -0.041 | ibrutinib 0.019 | [13] 0.019 | ralimetinib 0.091 | [14] 0.017 | [7] 0 | [8] 0.002 | [9] 0.037 | [10] -0.033 | [15] 0.025 | [16] -0.029

PARPBP (UniProt Q9NWS1)
inactive: erlotinib 0.048 | [1] 0.055 | [2] 0.065 | [3] -0.445 | [11] -0.01 | [4] 0.006 | [5] 0.064 | [6] 0.08 | ibrutinib 0.046 | [7] -0.124 | [8] -0.033 | [9] -0.032

PDE4DIP isoform 4 (UniProt Q5VU43)
inactive: erlotinib 0.002 | [1] -0.026 | [2] 0.017 | [3] 0.004 | [11] -0.004 | [12] 0 | [4] -0.111 | [5] -0.009 | [6] 0.055 | IRAK-1-4 Inhibitor I 0.024 | ibrutinib 0.249 | [13] -0.021 | ralimetinib 0.02 | [14] -0.03 | [7] -0.061 | [8] -0.032 | [9] 0.006 | [10] 0.054 | [15] -0.033 | [16] 0.017

PEX14 (UniProt O75381)
inactive: erlotinib -0.034 | [1] 0.028 | [2] 0.024 | [3] 0.012 | [11] -0.008 | [12] -0.024 | [4] -0.054 | [5] 0.019 | [6] 0.03 | IRAK-1-4 Inhibitor I 0.018 | ibrutinib 0.022 | [13] 0.007 | ralimetinib -0.014 | [14] -0.03 | [7] -0.038 | [8] 0.039 | [9] 0.015 | [10] 0.02 | [15] -0.036 | [16] 0

PEX1 (UniProt O43933)
inactive: [1] 0.135 | [3] -0.009 | [12] -0.134 | [4] 0.035 | [5] 0.133 | [6] 0.104 | IRAK-1-4 Inhibitor I -0.01 | [13] -0.066 | ralimetinib 0.113 | [14] 0.07 | [10] 0.021 | [15] 0 | [16] 0.013
